Data as given in PubChem BioAssay AID504834 (National Center for Advancing Translational Sciences (NCATS), 2011).
Among all 320,000 compounds or so, about 22,000 (6.9%) were called active. The shares of active, inactive and inconclusive entries below differ from those in the screen. Calls follow the shape of the dose curve; as a rule, active = well fitted inhibition curve with a large enough effect; inconclusive = small, poorly fitted or top-dose-only effect, or another doubt; inactive = no such curve, though single readings can be large or run the other way. A potency beside an inconclusive call is a rough fit, not a confirmed value.
Potency is read from the fitted curve at half-maximal effect.

Experiment: Primary qHTS for delayed death inhibitors of the malarial parasite plastid, 96 hour incubation
Conditions: P. falciparum luciferase reporter growth; series mostly up to 28.7 µM
Method in brief: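 Cell-based qHTS: luciferase-tagged P. falciparum in erythrocytes (2% hematocrit, 0.05% parasitemia final) incubated with compounds for 96 hours, 37 C, 5% CO2; luciferase detection reagent then added and luminescence measured.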
With O=c1c(Cc2ccc(F)cc2)c(O)ccn1Cc1ccc(F)cc1 the Potency was inconclusive: 3.29 µM [inhibitor, partial curve, poor fit].
In the case of CCCn1c(=N)c(S(=O)(=O)c2ccc(F)cc2)cc2c(=O)n3ccccc3nc21, the Potency is reported as inconclusive: 18.5 µM [inhibitor, single point].
For CCOc1ccc(CN(C)c2ccc(S(=O)(=O)N3CCN(C)CC3)cc2[N+](=O)[O-])cc1OC, the Potency was inconclusive: 13.1 µM [inhibitor, single point].
In the case of O=[N+]([O-])c1ccc(O)c(/C=N/n2c(CO)nc3ccccc32)c1, the Potency is reported as active: 13.1 µM.
In the case of O=C(c1cccc(C(=O)N2CCc3ccccc32)n1)N1CCc2ccccc21, the Potency is reported as inconclusive: 7.38 µM [inhibitor, partial curve, poor fit].
With O=C(CCCSc1ccc(Cl)cc1)Nc1cc(S(=O)(=O)N2CCOCC2)ccc1O the Potency was active: 8.28 µM.
With O=C(O)c1cc2nc(-c3ccccc3)cc(-c3ccccc3)n2n1 the Potency was inconclusive: 4.15 µM [inhibitor, partial curve].
For CC1(C)CC(=O)C=C(NCC(O)c2ccccc2)C1 (configuration not stated), the Potency was inconclusive: 0.294 µM [inhibitor, full curve, poor fit].
With CSC1=NCCN1C(=O)COc1ccccc1 the Potency was inconclusive: 18.5 µM [inhibitor, single point].
For CN(CC(=O)Nc1cccc2ccccc12)C(=O)/C=C/c1cccs1, the Potency was “inactive”.
In the case of Cc1ccc(C(NC(=O)NC(C)c2ccccc2)C(Cl)(Cl)Cl)cc1F (configuration not stated), the Potency is reported as inconclusive: 2.33 µM [inhibitor, full curve, poor fit].
In the case of CC1(C)CC(=O)C2=C(C1)NC1=C(C(=O)c3ccccc31)C2c1ccc(Cl)cc1 (configuration not stated), the Potency is reported as inconclusive: 7.38 µM [inhibitor, partial curve].
For COC(=O)CCN1CCN(S(=O)(=O)c2cccc(Br)c2)CC1, the Potency was inconclusive: 0.233 µM [inhibitor, full curve, poor fit].
With O=C(N/N=C1/CCCc2ccccc21)C(c1ccccc1)c1ccccc1 the Potency was inconclusive: 0.0029 µM [inhibitor, full curve, poor fit].
For Cn1c(=O)c2c(ncn2CC(COCc2ccccc2)OCc2ccccc2)n(C)c1=O (configuration not stated), the Potency was “inactive”.
For CCN1C/C(=C/c2sccc2C)c2nc3ccccc3c(C(=O)O)c2C1, the Potency was “inactive”.
For C=CCc1cccc(/C=N/NC(=O)CNc2ccccc2)c1O, the Potency was inconclusive: 10.4 µM [inhibitor, single point].
In the case of C/C(=N\NC(=O)c1ccc(F)cc1)c1cccc(NC(=O)c2cccc(F)c2)c1, the Potency is reported as “inactive”.
In the case of CCN1CCC(N2CCN(c3ccccc3OC)CC2)CC1, the Potency is reported as inconclusive: 11.7 µM [inhibitor, single point].
For COc1ccc(C)cc1N1CC(C(=O)Nc2ccccc2N2CCCCC2)CC1=O (configuration not stated), the Potency was inconclusive: 18.5 µM [inhibitor, single point].
For CC(c1ccco1)N(C(=O)CSc1ccc(Br)cc1)c1ccccn1 (configuration not stated), the Potency was inconclusive: 0.0033 µM [inhibitor, full curve, poor fit].
In the case of CCOc1ccc(S(=O)(=O)Nc2ccccc2C(=O)NCC2CCCO2)cc1 (configuration not stated), the Potency is reported as “inactive”.
In the case of Cc1cccc(NC(=O)c2sc3nc4c(c(-c5ccco5)c3c2N)CCC4)c1, the Potency is reported as active: 1.85 µM.
For CCCN1C(=O)c2ccccc2NC1c1ccc(Cl)c(Cl)c1 (configuration not stated), the Potency was active: 9.28 µM.
With COc1ccc(OC)c(S(=O)(=O)n2c([N+](=O)[O-])cnc2C)c1 the Potency was inconclusive: 18.5 µM [inhibitor, single point].
For Cc1cc2c(cc1S(=O)(=O)NC1CCCCC1C)OCC(=O)N2 (configuration not stated), the Potency was inconclusive: 18.5 µM [inhibitor, single point].
In the case of COc1cccc(CC(=O)Nc2ccc(-c3csc(C)n3)cc2)c1, the Potency is reported as “inactive”.
With COC(=O)CCCC1=CC2=C(c3ccccc3)C(=O)C(C)(OC(=O)C3CCCC3)C(=O)C2=CN1C1CCCCC1 (configuration not stated) the Potency was inconclusive: 10.4 µM [inhibitor, partial curve, poor fit].
For CC(C)(C)[C@H]1CCC(=O)N([C@H](CSc2ccccc2)Cc2ccccc2)CC1, the Potency was inconclusive: 8.28 µM [inhibitor, partial curve, poor fit].
For COC(=O)C1(Cc2cc(-c3ccccc3)no2)CCN(C(=O)OC(C)(C)C)CC1, the Potency was “inactive”.
For COc1ccc(N2CCN(CCCNC(=O)C3CCCN(S(=O)(=O)c4cnc[nH]4)C3)CC2)cc1 (configuration not stated), the Potency was inconclusive: 18.5 µM [inhibitor, single point].
With COC(=O)c1cccc(NC(=O)CN2C(=O)c3ccccc3C2=O)c1 the Potency was inconclusive: 18.5 µM [inhibitor, single point].
With O=C(NCC1CC1)C1CCCN(S(=O)(=O)c2ccc(-n3cnnn3)cc2)C1 (configuration not stated) the Potency was inconclusive: 13.1 µM [inhibitor, single point].
For COc1ccc(-c2cc(=O)c3c(OC)c(OC)c(OC)cc3o2)cc1, the Potency was active: 11.7 µM.
With CC(C)CN(C)Cc1c(C(=O)N2CCc3ccccc3C2)nc2ccc(Cl)cn12 the Potency was inconclusive: 18.5 µM [inhibitor, single point].
With Cc1nnc(C)n1/N=C/c1cc2ccccc2nc1Cl the Potency was inconclusive: 11.7 µM [inhibitor, single point].
For CC(C)c1ccc(/C=C/C(=O)NC(=S)Nc2ccc(CN3CCOCC3)cc2)cc1, the Potency was active: 5.22 µM.
In the case of Cc1nc(-c2cccc(-c3noc(C)n3)c2)no1, the Potency is reported as “inactive”.
With CN(C)c1ccc(CNC(=O)CN(C)S(=O)(=O)c2cccc3cccnc23)cc1 the Potency was inconclusive: 10.4 µM [inhibitor, single point].
In the case of COc1cccc(CN(C)C(=O)CSc2nc3ccccc3[nH]2)c1OC, the Potency is reported as “inactive”.
With Cc1cccc(CCN(C(=O)c2csnn2)C(C(=O)NC2CCCC2)c2ccco2)c1 (configuration not stated) the Potency was “inactive”.
With CCC(c1nnnn1Cc1cccs1)N1CCN(C2CCCC2)CC1 (configuration not stated) the Potency was inconclusive: 11.7 µM [inhibitor, single point].
For COc1ccc(NC2c3ccccc3C(=O)N2Cc2ccco2)cc1OC (configuration not stated), the Potency was “inactive”.
For COc1ccc2nc(-c3ccccc3)cc(C(=O)OCC(=O)N3CC(C)OC(C)C3)c2c1 (configuration not stated), the Potency was inconclusive: 10.4 µM [inhibitor, single point].
For Cc1nn(-c2ccccc2)c2c1C(c1ccc(Br)s1)C(C#N)=C(N)O2 (configuration not stated), the Potency was inconclusive: 0.657 µM [inhibitor, full curve, poor fit].
In the case of O=C(Cn1ncc2c([nH]c3ccccc32)c1=O)N1CCOCC1, the Potency is reported as inconclusive: 16.5 µM [inhibitor, single point].
With Cc1cccc2cc(CN(CCCO)C(=O)Nc3cccc(Cl)c3)c(=O)[nH]c12 the Potency was “inactive”.
In the case of Cc1ccc(/C(N)=N/OC(=O)Cc2cccs2)cc1, the Potency is reported as “inactive”.
In the case of CCC(Oc1ccccc1F)C(=O)Nc1ccc2c(c1)n(C)c(=O)n2C (configuration not stated), the Potency is reported as inconclusive: 18.5 µM [inhibitor, single point].
For CSCC(=O)N1CCC(CCC(=O)NC2CC2)CC1, the Potency was inconclusive: 16.5 µM [inhibitor, partial curve, poor fit].
With CCCn1c(=O)c(C(=O)NNS(=O)(=O)c2ccc(Cl)cc2)c(O)c2ccccc21 the Potency was “inactive”.
In the case of CCCCCSc1nc2c(c(=O)[nH]c(=O)n2C)n1C(C)C, the Potency is reported as active: 11.7 µM.
For O=C(Nc1cccc(Cl)c1)N(CCCN1CCOCC1)Cc1ccccc1F, the Potency was active: 2.08 µM.
With O=C(Nc1ccccc1[N+](=O)[O-])c1cc(S(=O)(=O)N2CCOCC2)cs1 the Potency was inconclusive: 16.5 µM [inhibitor, partial curve, poor fit].
In the case of CCOC(=O)CSc1n[nH]c(-c2ccco2)n1, the Potency is reported as “inactive”.
In the case of O=C(Nc1cc(Sc2ccccn2)cc([N+](=O)[O-])c1)c1ccc(Cl)cc1, the Potency is reported as inconclusive: 18.5 µM [inhibitor, single point].
With CC(C)(C)NC(=O)C(c1ccc(O)cc1)N(C(=O)CCC(=O)Nc1nccs1)c1cccc(F)c1 (configuration not stated) the Potency was inconclusive: 18.5 µM [inhibitor, single point].
In the case of CN1/C(=C\C(=S)NC(=O)c2ccc([N+](=O)[O-])cc2)C(C)(C)c2ccccc21, the Potency is reported as “inactive”.
With Cc1ccc2cc(CCNC(=O)C3CCCCC3)c(=O)[nH]c2c1C the Potency was inconclusive: 0.0037 µM [inhibitor, full curve, poor fit].
With COc1ccc(-c2n[nH]c(C)c2-c2cscn2)c(O)c1 the Potency was “inactive”.
In the case of O=C(NNC(=O)c1ccccc1Br)c1ccc(Cl)c(Cl)c1, the Potency is reported as “inactive”.
In the case of Cc1cc([P+](=O)O)c(C)n1-c1ccc(Br)cc1, the Potency is reported as inconclusive: 4.65 µM [inhibitor, partial curve, poor fit].
In the case of Cc1cc(N/C=C(\C#N)S(=O)(=O)c2ccccc2Cl)nc(C)n1, the Potency is reported as “inactive”.
With Cc1cc(C)c(OCC(=O)Nc2ccc(S(=O)(=O)N3CCCC3)cc2)c(C)c1 the Potency was inconclusive: 8.28 µM [inhibitor, partial curve].
For Fc1ccc(CSc2nncn2NCc2ccc3c(c2)OCO3)cc1, the Potency was “inactive”.
In the case of CN(C)N1C(N)=C(C#N)C(c2ccc(Cl)cc2)C2=C1CCCC2=O (configuration not stated), the Potency is reported as active: 0.738 µM.
For COc1cccc(CN2CCN(Cc3cccn3-c3cccnc3)CC2CCO)c1 (configuration not stated), the Potency was “inactive”.
With CCN(CC)C1CC(=O)N(c2cccc(C)c2)C1=O (configuration not stated) the Potency was inconclusive: 13.1 µM [inhibitor, single point].
In the case of CC1(C)Cc2c(sc3nc4n(c(=N)c23)CCCCC4)CO1, the Potency is reported as “inactive”.
For CCOc1ccc(NC2=C(Cl)C(=O)N(C3CCCCC3)C2=O)cc1, the Potency was inconclusive: 18.5 µM [inhibitor, single point].
In the case of CCOC(=O)CSc1nc(-c2ccccc2)nc2ccc(C)cc12, the Potency is reported as inconclusive: 1.17 µM [inhibitor, partial curve, poor fit].
